# PMC10739934
# Sequences of proteins named here, by UniProt entry; tags and fusion partners are left off.
# UniProt P42224: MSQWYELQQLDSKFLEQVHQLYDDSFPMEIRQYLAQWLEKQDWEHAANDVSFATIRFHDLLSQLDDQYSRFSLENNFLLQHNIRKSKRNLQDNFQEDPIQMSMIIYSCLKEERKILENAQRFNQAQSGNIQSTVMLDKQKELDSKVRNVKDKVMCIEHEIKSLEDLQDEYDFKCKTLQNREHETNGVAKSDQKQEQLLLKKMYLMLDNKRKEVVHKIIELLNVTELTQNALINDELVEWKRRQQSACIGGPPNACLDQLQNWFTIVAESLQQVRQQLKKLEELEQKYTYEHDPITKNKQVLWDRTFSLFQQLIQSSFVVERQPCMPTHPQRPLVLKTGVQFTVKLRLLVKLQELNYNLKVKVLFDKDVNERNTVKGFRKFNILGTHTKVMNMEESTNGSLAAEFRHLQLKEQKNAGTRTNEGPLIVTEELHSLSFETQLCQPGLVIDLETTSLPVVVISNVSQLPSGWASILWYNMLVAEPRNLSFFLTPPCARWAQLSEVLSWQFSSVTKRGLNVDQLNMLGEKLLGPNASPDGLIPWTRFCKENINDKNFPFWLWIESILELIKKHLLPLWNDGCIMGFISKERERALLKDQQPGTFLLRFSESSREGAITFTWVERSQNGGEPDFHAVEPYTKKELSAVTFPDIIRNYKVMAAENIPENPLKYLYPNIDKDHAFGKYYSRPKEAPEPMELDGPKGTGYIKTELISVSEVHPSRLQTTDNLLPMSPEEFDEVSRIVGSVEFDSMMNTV
# UniProt P40763: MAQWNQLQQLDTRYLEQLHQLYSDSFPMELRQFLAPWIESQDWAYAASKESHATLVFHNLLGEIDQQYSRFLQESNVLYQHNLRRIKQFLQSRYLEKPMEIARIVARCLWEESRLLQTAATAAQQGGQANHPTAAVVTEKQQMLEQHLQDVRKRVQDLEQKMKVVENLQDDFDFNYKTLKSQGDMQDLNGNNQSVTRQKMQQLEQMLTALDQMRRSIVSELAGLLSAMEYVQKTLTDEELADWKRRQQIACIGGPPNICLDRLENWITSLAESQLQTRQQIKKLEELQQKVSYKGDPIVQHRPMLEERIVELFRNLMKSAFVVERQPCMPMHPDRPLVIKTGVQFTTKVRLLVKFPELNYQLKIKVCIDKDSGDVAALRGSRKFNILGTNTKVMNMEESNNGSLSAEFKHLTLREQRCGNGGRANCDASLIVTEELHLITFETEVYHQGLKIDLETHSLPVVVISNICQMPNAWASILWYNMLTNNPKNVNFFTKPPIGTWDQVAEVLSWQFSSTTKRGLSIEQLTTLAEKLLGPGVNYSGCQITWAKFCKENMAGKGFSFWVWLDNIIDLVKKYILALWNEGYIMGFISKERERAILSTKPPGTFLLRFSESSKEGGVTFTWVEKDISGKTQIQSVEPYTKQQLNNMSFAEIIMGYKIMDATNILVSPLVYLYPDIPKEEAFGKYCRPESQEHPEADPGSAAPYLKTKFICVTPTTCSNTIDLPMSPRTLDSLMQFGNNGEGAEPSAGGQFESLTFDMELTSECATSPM
# UniProt Q93009: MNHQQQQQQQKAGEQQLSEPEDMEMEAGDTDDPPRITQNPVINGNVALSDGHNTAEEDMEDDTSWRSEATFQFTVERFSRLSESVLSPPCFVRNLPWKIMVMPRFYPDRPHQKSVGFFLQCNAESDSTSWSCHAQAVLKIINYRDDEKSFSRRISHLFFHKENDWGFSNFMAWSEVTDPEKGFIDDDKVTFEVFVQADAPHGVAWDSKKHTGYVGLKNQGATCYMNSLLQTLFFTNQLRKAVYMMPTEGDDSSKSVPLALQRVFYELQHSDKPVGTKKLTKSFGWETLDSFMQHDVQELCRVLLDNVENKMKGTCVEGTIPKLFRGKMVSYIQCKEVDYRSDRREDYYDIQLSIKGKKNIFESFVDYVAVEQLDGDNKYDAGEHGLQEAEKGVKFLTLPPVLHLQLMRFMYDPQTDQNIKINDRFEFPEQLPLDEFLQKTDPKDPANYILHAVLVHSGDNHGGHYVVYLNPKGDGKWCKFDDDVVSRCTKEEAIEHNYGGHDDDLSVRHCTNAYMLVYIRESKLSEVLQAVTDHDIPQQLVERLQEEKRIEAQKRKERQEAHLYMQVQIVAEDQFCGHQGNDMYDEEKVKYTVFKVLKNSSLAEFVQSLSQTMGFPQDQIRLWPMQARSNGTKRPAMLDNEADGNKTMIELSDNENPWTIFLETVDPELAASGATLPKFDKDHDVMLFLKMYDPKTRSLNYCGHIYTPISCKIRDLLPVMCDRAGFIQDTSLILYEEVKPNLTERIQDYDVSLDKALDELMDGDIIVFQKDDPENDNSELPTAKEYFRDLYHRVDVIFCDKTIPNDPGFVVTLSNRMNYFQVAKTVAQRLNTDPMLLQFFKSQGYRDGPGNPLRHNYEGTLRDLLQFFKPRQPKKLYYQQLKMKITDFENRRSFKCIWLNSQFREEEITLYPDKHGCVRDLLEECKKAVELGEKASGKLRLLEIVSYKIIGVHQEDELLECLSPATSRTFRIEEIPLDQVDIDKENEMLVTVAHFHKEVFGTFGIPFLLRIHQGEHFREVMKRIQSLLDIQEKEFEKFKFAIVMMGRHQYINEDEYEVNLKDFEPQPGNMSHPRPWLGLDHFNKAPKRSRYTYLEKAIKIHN
# Results are given in words; binding and its absence hold for the method and conditions named. Binding seen in cells or lysates may run through a third protein. Some entries that bind do so weakly or less than the wild type.
# Molecular target: T1, tripartite motif-containing 24 (TRIM24) (human (endogenous in THP-1)) (UniProt O15164)
# T1 sequence: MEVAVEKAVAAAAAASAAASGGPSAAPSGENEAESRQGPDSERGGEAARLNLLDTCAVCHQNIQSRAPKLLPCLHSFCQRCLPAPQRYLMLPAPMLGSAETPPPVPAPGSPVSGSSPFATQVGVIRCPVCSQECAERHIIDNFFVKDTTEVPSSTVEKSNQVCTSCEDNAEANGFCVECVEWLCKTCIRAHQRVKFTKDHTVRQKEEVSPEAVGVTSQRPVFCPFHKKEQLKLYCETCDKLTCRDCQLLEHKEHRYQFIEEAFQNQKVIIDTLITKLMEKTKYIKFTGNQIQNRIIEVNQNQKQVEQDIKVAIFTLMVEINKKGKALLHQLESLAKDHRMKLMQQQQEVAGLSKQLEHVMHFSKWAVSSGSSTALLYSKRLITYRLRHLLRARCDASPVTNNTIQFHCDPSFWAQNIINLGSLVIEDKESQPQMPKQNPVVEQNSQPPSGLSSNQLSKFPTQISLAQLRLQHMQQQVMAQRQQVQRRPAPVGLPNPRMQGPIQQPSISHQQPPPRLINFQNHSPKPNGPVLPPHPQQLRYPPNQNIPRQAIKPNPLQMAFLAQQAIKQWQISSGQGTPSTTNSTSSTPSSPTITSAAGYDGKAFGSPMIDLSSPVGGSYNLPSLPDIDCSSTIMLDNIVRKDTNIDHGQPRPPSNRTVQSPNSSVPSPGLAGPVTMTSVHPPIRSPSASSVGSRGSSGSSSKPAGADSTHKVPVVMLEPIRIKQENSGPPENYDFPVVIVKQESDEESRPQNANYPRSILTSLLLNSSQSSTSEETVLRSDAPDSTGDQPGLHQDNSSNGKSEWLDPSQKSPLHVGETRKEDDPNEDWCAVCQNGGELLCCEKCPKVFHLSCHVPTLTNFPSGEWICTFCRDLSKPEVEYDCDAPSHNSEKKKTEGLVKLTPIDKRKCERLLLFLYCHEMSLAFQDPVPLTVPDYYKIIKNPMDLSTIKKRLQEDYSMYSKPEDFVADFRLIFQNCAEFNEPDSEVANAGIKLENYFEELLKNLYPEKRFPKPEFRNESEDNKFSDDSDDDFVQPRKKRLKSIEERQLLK
# Test: co-IP; macrophage lysates (Pierce IP lysis buffer with protease inhibitor cocktail); IP with anti-USP7, anti-TRIM24, anti-STAT3, anti-STAT1, anti-STAT6 or control IgG pre-conjugated to protein A/G PLUS-Agarose, overnight at 4 °C; detection by Western blotting
row,binding,Substance
1,no binding,STAT1 (from UniProt P42224 1-750)
2,binds,signal transducer and activator of transcription 3 (STAT3) (from UniProt P40763 1-770)
3,binds,Ubiquitin-specific processing protease 7 (USP7) (from UniProt Q93009 1-1102) (enzyme)
